± gives the standard deviation of the averaged measurements. Differences between knockout arms are mostly noise.
System: ZR-75-1
Experiment: relative cell number vs DMSO control (72 h) (% of DMSO); higher = less growth inhibition (more cells)
Experimental: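 QMAP-Seq: a pool of 5 breast cancer cell lines (ZR-75-1, SKBR3, HCC-38, MDA-MB-231, BT-20), each carrying 12 doxycycline-inducible Cas9 sgRNA perturbations (11 knockouts plus non-targeting sgNT), was treated with compounds for 72 h at four 10-fold doses (10 nM-10 uM or 1 nM-1 uM range). Barcodes were amplified and sequenced, and cell number was interpolated from 293T spike-in standard curves. The result is expressed as % of the median of DMSO wells. Two biological replicates.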

[1] = sgRNA knockout: sgATF3, 1000 nM
[2] = sgRNA knockout: sgATF4, 1000 nM
[3] = sgRNA knockout: sgATF6, 1000 nM
[4] = sgRNA knockout: sgATG7, 1000 nM
[5] = sgRNA knockout: sgERN1, 1000 nM
[6] = sgRNA knockout: sgHSF2, 1000 nM
[7] = sgRNA knockout: sgNFE2L2, 10 nM
[8] = sgRNA knockout: sgNFE2L2, 100 nM
[9] = sgRNA knockout: sgNFE2L2, 1000 nM
[10] = sgRNA knockout: sgSLC35F2, 10 nM
[11] = sgRNA knockout: sgSLC35F2, 100 nM
[12] = sgRNA knockout: sgSLC35F2, 1000 nM
[13] = sgRNA knockout: sgXBP1, 1000 nM
[14] = sgRNA knockout: sgSLC35F2, 1 nM

| Structure (SMILES) | relative cell number (sgRNA knockout: sgATF3, 10 nM) | relative cell number (sgRNA knockout: sgATF3, 100 nM) | relative cell number [1] | relative cell number (sgRNA knockout: sgATF4, 10 nM) | relative cell number (sgRNA knockout: sgATF4, 100 nM) | relative cell number [2] | relative cell number (sgRNA knockout: sgATF6, 10 nM) | relative cell number (sgRNA knockout: sgATF6, 100 nM) | relative cell number [3] | relative cell number (sgRNA knockout: sgATG7, 10 nM) | relative cell number (sgRNA knockout: sgATG7, 100 nM) | relative cell number [4] | relative cell number (sgRNA knockout: sgERN1, 10 nM) | relative cell number (sgRNA knockout: sgERN1, 100 nM) | relative cell number [5] | relative cell number (sgRNA knockout: sgHSF2, 10 nM) | relative cell number (sgRNA knockout: sgHSF2, 100 nM) | relative cell number [6] | relative cell number [7] | relative cell number [8] | other results |
| --- | --- | --- | --- | --- | --- | --- | --- | --- | --- | --- | --- | --- | --- | --- | --- | --- | --- | --- | --- | --- | --- |
| CC(C)(C)c1cnc(CSc2cnc(NC(=O)C3CCNCC3)s2)o1 [SNS032] | 77.3 ± 11 | 90.8 ± 6.4 | 9.54 ± 2.5 | 118 ± 28 | 112 ± 16 | 20.6 ± 6.4 | 74.8 ± 14 | 69.1 ± 56 | 5.77 ± 1.4 | 99.3 ± 2.6 | 79.8 ± 1.1 | 10.21 ± 0.08 | 112 ± 12 | 87.4 ± 1.8 | 15.48 ± 0.053 | 109 ± 18 | 89.5 ± 3.5 | 14.7 ± 2.8 | 126 ± 34 | 80.3 ± 11 | relative cell number (sgRNA knockout: sgATF3, 10000 nM): 23.953 ± 0.019; relative cell number (sgRNA knockout: sgATF4, 10000 nM): 22.7 ± 4; relative cell number (sgRNA knockout: sgATF6, 10000 nM): 20.5 ± 7.9; relative cell number (sgRNA knockout: sgATG7, 10000 nM): 28.9 ± 15; relative cell number (sgRNA knockout: sgERN1, 10000 nM): 34.3 ± 6.5; relative cell number (sgRNA knockout: sgHSF2, 10000 nM): 24.4 ± 3.2; relative cell number [9]: 11.8 ± 1.7; relative cell number (sgRNA knockout: sgNFE2L2, 10000 nM): 27.9 ± 4.1; relative cell number [10]: 89.5 ± 53; relative cell number [11]: 68.1 ± 0.85; relative cell number [12]: 19 ± 13; relative cell number (sgRNA knockout: sgSLC35F2, 10000 nM): 10 ± 4.3; relative cell number (sgRNA knockout: sgXBP1, 10 nM): 113 ± 31; relative cell number (sgRNA knockout: sgXBP1, 100 nM): 92.1 ± 9; relative cell number [13]: 14.1 ± 1.4; relative cell number (sgRNA knockout: sgXBP1, 10000 nM): 23 ± 3.1 |
| CC(C)c1cc(-c2n[nH]c(=O)n2-c2ccc3c(ccn3C)c2)c(O)cc1O [Ganetespib] | 79.812 ± 0.03 | 22.1 ± 8.8 | 18.3 ± 4.9 | 107 ± 20 | 24.6 ± 4.4 | 26.9 ± 2.2 | 84.7 ± 46 | 28.9 ± 6.4 | 15.3 ± 12 | 114 ± 27 | 29 ± 12 | 20.6 ± 3.6 | 98.5 ± 17 | 28.9 ± 4.7 | 21.8 ± 11 | 87.5 ± 18 | 23.1 ± 5.9 | 21.8 ± 2.1 | 59.8 ± 12 | 21.9 ± 4.5 | relative cell number (sgRNA knockout: sgATF3, 1 nM): 105 ± 28; relative cell number (sgRNA knockout: sgATF4, 1 nM): 124 ± 6.5; relative cell number (sgRNA knockout: sgATF6, 1 nM): 106 ± 41; relative cell number (sgRNA knockout: sgATG7, 1 nM): 72.6 ± 30; relative cell number (sgRNA knockout: sgERN1, 1 nM): 89.9 ± 15; relative cell number (sgRNA knockout: sgHSF2, 1 nM): 101 ± 15; relative cell number (sgRNA knockout: sgNFE2L2, 1 nM): 90.9 ± 4.2; relative cell number [9]: 14.7 ± 0.83; relative cell number [14]: 100 ± 19; relative cell number [10]: 96.57 ± 0.29; relative cell number [11]: 13.9 ± 5.6; relative cell number [12]: 18.4 ± 3; relative cell number (sgRNA knockout: sgXBP1, 1 nM): 88.2 ± 4.6; relative cell number (sgRNA knockout: sgXBP1, 10 nM): 80.8 ± 23; relative cell number (sgRNA knockout: sgXBP1, 100 nM): 22.2 ± 2.5; relative cell number [13]: 21.3 ± 6.1 |
| N#Cc1ccc(C(c2ccc(C#N)cc2)n2cncn2)cc1 [Letrozole] | 86.9 ± 30 | 94.2 ± 38 | 105 ± 5.9 | 69.3 ± 18 | 97.2 ± 10 | 126 ± 24 | 85.17 ± 0.79 | 87.7 ± 9.4 | 120 ± 16 | 98.96 ± 0.89 | 77.5 ± 1.6 | 101 ± 9.2 | 117 ± 63 | 105 ± 25 | 101 ± 14 | 118 ± 15 | 99.6 ± 9.2 | 92.3 ± 11 | 102 ± 15 | 137 ± 12 | relative cell number (sgRNA knockout: sgATF3, 1 nM): 108 ± 22; relative cell number (sgRNA knockout: sgATF4, 1 nM): 108 ± 32; relative cell number (sgRNA knockout: sgATF6, 1 nM): 117 ± 10; relative cell number (sgRNA knockout: sgATG7, 1 nM): 88.9 ± 18; relative cell number (sgRNA knockout: sgERN1, 1 nM): 89 ± 3.2; relative cell number (sgRNA knockout: sgHSF2, 1 nM): 88.91 ± 0.59; relative cell number (sgRNA knockout: sgNFE2L2, 1 nM): 69 ± 3.8; relative cell number [9]: 119 ± 32; relative cell number [14]: 94.1 ± 22; relative cell number [10]: 49.17 ± 0.45; relative cell number [11]: 66.4 ± 11; relative cell number [12]: 81.1 ± 17; relative cell number (sgRNA knockout: sgXBP1, 1 nM): 76.2 ± 6.6; relative cell number (sgRNA knockout: sgXBP1, 10 nM): 113 ± 36; relative cell number (sgRNA knockout: sgXBP1, 100 nM): 101 ± 12; relative cell number [13]: 102 ± 31 |

— the supplement of paper PMC7661543
